Results are given in words; binding and its absence hold for the method and conditions named. Some results given as binding are weak or reduced against the parent protein; the word gives no strength.
What was measured:
[1] = molecular target: T1, Cu2+-oxLDL/β2GPI complex (complex of copper-oxidized LDL and β2-glycoprotein I) (human) (UniProt P02749+P04114); test: lateral flow assay, Experiment 8: biotin-2E10 as capture, gold-3H3 as label
[2] = molecular target: T1, Cu2+-oxLDL/β2GPI complex (complex of copper-oxidized LDL and β2-glycoprotein I) (human); test: lateral flow assay, Experiment 5: biotin-3H3 as capture, gold-2E10 as label; compared with Experiment 8

Chains of the proteins cited; added tags and fusions are not shown. Lines headed by an entry give the natural chain unless they say otherwise; changes in a name come on top.
UniProt P02749: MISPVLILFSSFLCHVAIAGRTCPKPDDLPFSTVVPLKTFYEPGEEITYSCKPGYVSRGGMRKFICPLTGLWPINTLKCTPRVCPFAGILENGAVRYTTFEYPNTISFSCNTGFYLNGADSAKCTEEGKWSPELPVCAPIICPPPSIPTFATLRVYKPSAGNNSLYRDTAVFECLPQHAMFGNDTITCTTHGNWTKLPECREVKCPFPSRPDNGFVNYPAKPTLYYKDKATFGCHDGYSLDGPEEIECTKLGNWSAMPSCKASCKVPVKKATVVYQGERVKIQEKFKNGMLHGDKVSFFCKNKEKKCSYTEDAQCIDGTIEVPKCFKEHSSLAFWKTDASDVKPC
UniProt P04114: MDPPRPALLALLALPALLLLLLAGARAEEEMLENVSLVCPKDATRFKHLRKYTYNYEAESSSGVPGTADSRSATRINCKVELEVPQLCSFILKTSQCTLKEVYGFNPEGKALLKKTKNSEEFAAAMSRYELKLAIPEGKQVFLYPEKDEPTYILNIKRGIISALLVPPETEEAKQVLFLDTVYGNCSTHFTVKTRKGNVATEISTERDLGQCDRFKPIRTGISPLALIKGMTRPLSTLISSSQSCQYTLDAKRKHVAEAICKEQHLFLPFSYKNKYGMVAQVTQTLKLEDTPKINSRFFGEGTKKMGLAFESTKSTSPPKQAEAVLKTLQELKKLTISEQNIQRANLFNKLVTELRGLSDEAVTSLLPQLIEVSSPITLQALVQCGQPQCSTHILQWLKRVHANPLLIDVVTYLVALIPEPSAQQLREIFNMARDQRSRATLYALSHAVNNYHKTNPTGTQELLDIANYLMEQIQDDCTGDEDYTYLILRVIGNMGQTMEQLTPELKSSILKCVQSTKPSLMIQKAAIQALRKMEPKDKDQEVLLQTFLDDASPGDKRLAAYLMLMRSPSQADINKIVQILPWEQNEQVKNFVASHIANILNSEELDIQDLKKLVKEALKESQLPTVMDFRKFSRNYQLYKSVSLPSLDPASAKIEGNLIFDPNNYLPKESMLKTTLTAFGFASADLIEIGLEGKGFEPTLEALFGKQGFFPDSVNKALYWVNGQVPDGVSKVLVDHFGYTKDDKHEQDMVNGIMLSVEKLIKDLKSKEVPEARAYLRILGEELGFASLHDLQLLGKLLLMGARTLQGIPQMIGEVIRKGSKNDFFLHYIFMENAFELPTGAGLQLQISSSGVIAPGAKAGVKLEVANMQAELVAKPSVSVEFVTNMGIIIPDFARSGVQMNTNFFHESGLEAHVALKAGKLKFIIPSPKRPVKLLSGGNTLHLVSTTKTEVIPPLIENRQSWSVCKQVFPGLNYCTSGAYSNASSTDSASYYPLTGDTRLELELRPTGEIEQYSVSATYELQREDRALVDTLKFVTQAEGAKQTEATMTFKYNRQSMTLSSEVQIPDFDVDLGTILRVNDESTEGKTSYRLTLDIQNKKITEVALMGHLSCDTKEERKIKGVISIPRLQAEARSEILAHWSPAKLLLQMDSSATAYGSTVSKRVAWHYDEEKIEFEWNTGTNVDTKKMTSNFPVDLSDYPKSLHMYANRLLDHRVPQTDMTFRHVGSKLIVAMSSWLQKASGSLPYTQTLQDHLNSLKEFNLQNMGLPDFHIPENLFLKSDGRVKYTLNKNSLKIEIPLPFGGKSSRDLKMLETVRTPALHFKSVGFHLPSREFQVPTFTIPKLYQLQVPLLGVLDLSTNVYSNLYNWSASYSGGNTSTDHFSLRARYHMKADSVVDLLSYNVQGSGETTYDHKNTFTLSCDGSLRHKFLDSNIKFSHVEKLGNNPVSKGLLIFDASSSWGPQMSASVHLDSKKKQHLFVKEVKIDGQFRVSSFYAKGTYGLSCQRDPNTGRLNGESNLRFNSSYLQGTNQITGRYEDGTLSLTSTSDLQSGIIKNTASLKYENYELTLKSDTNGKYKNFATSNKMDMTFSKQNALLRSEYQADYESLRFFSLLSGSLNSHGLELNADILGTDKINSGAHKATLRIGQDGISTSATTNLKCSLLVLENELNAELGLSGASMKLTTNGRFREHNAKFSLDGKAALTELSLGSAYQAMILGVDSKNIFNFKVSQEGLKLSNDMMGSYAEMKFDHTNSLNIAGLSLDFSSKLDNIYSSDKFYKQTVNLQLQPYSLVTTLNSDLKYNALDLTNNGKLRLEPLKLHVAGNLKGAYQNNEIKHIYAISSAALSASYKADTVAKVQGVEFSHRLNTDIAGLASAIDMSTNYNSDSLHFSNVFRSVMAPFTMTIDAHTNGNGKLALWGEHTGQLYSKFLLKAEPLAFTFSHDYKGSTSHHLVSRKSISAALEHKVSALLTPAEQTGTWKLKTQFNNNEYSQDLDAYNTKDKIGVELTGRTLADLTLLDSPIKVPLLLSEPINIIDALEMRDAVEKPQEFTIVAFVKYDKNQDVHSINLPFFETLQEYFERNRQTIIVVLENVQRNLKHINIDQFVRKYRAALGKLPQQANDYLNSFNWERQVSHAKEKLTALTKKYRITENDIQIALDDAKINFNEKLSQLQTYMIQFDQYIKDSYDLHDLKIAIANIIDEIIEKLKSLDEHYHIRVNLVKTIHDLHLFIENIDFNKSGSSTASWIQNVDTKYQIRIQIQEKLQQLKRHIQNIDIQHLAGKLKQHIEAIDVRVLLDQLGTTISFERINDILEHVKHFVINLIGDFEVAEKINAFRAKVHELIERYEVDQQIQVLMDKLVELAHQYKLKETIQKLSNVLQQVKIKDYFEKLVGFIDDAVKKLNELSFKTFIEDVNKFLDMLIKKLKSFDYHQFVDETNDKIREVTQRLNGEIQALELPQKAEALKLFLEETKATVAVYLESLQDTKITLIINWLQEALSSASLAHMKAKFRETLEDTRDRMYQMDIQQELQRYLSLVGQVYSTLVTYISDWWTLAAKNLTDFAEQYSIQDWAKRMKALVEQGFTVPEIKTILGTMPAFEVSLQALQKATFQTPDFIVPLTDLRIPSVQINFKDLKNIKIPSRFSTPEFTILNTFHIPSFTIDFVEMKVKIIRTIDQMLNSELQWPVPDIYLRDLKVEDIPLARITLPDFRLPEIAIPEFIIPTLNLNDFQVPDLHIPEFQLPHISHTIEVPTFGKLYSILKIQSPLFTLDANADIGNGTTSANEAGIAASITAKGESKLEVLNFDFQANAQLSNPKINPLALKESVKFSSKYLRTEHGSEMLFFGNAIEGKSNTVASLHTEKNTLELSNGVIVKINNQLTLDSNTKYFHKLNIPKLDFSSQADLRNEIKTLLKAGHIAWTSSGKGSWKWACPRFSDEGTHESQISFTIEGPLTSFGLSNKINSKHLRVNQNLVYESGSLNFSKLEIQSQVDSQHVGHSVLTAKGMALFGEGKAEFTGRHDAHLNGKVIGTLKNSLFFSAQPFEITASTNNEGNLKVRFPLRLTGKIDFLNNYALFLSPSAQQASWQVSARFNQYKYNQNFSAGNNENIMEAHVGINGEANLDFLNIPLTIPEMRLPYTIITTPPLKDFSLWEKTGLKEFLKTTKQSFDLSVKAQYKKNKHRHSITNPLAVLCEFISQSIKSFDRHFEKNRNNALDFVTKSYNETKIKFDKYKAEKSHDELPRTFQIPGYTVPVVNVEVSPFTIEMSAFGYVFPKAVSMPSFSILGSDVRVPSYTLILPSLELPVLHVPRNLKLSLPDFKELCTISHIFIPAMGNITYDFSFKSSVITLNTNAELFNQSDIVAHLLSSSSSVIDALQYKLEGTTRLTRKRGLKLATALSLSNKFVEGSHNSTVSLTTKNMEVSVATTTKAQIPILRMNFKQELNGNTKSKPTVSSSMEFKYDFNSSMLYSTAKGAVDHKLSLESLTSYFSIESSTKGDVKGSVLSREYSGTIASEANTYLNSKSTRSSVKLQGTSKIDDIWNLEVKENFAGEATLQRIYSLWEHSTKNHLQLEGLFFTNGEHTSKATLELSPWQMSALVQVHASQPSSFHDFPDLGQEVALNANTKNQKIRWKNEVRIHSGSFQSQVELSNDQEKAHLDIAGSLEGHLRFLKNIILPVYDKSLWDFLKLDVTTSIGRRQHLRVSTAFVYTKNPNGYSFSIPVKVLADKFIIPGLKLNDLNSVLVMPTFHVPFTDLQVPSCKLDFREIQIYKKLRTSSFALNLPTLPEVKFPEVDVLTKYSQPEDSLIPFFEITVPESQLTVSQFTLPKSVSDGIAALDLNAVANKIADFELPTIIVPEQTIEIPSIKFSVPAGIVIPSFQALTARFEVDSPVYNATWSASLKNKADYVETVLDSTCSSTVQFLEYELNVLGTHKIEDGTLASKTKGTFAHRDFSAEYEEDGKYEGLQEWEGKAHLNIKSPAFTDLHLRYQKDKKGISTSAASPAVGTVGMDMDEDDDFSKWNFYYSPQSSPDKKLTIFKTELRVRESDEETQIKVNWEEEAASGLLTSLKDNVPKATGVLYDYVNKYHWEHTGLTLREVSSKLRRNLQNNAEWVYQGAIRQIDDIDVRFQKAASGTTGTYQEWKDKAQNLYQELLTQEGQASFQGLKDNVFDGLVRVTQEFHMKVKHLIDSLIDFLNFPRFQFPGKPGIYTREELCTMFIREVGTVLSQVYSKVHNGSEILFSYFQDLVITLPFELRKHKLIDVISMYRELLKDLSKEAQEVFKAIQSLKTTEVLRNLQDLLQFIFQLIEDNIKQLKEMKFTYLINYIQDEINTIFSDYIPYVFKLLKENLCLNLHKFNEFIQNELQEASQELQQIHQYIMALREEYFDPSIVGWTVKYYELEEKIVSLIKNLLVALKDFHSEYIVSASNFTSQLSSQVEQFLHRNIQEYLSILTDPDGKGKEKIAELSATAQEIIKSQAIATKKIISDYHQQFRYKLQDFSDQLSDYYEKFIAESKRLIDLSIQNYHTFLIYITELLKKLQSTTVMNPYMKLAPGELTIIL

B1: 3H3 antibody (anti-β2GPI antibody produced by hybridoma clone 3H3) (antibody, V domains shown)
VH: EVQLVESGGGLVKPGGSLKLSCAASGFTFSSYAMSWARQTPEKRLEWVATISSGGSYTYYPDSVRGRFTISRDNAKNTLYLQMCSLRSEDTAMYYCARFDGYYAMDYWGQGTSVTVSS
VL: DIVMTQSHKFMSTSVGDRVSITCKASQDVGSAVAWYQQKPGQSPKLLIYWASTRHTGVPDRFTGSGSGTDFTLTISSLQSEDLADYFCQQYSSYPLTFGSGTKLEIK
[1]
  binding: binds
[2]
  binding: binds
